Results: PMC7819943, “Rice protein-binding microarrays: a tool to detect cis-acting elements near promoter regions in rice”
The list shows a part of the results.

The chains behind the UniProt entries cited, without tags or fusion partners.
UniProt Q0JBA9, entry or part of it: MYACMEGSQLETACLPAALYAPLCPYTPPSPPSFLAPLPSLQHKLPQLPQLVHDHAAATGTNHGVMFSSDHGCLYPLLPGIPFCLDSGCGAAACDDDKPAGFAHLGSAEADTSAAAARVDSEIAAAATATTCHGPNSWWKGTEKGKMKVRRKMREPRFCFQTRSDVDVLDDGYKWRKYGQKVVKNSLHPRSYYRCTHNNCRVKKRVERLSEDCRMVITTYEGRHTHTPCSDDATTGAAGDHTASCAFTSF

These sequences were tested against OsWRKY34 (Oryza sativa, UniProt Q0JBA9 1-250) (assay: protein-binding microarray (RPBM); PBS, 2% BSA, 51.3 ng/ul salmon testes DNA, 50 uM zinc acetate, 200 nM TF, 25 C, 1 h; high values mean tight binding). Details: protein: recombinant; tags: N-terminal polyhistidine and DsRed monomer fusion (pET32a); label: CyDye5-dUTP incorporated in the synthesized complementary strand; 3' TTTTT single-stranded linker to array surface; dsDNA, one strand shown.
Outline: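 The binding signal is fluorescence intensity per array feature (arbitrary units). Readings came from an Axon 4000B scanner after a washed, 2% BSA-blocked, double-stranded custom Agilent array had been incubated for 1 h at 25 °C with 200 nM protein and 50 µM zinc acetate. The protein was a Ni–NTA-purified transcription factor fused N-terminally to polyhistidine and DsRed, expressed in E. coli BL21-CodonPlus.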

| Sequence | binding signal |
| --- | --- |
| AAATTGGTAATCCTTATCCTCTCACTCTCTCACTGTTTCGCGGAGTCACCTAGTGCAG | 8710 fluorescence intensity (a.u.) |
| GCGGCCCATCACCTCTGACGGCTTCTAATGTATCGGCCCGCGGAGTCACCTAGTGCAG | 8690 fluorescence intensity (a.u.) |
| AAACGCTGTGGTGGGTGGTGGTGCGGATGGGGAGGTGTGGCGGAGTCACCTAGTGCAG | 14100 fluorescence intensity (a.u.) |
| CTGATTTGCTCTCTCATCTTTATAAATATGAGCACTCGTCCGGAGTCACCTAGTGCAG | 8790 fluorescence intensity (a.u.) |
| GGAGCGATGACGTTCTATACCTTCGGCCTTCGTTTGACCGCGGAGTCACCTAGTGCAG | 10600 fluorescence intensity (a.u.) |
| CCCAAATCCATCCAGCCCGTCGCCGCCCGCCGCCCGCCGCCGGAGTCACCTAGTGCAG | 8860 fluorescence intensity (a.u.) |
| CAACCCCTTACTTCATCACCTACTCATGTCAACACATAGCCGGAGTCACCTAGTGCAG | 8850 fluorescence intensity (a.u.) |
| TTGAGTCAGTTTTAATTTTATGTTTTGGTTTTAATCTATACGGAGTCACCTAGTGCAG | 9420 fluorescence intensity (a.u.) |
| AAAGGAGCACAAGACCATGCATGCATGCTGCAGATTTTACCGGAGTCACCTAGTGCAG | 8100 fluorescence intensity (a.u.) |
| TTTTCCATCACATCAAACTTTTCTACTCACGTAAACTTTTCGGAGTCACCTAGTGCAG | 8440 fluorescence intensity (a.u.) |
| TTCACCTTCTACACGGATTGCCTTGTCTATGTTTCCACTGCGGAGTCACCTAGTGCAG | 10900 fluorescence intensity (a.u.) |
| TCAGCGGCGAGACTACTTCATCAATCTTGCCCGCCACCGCCGGAGTCACCTAGTGCAG | 9300 fluorescence intensity (a.u.) |
| CGGTTGTTGGCGATTTGTCGACTCCCATCGGCTGATTTCACGGAGTCACCTAGTGCAG | 9430 fluorescence intensity (a.u.) |
| TTTCGTTTACATATGTTTAGAACATATAGTGCATATGTTTCGGAGTCACCTAGTGCAG | 8280 fluorescence intensity (a.u.) |
| TTTCGCTTACACATTTTTCAGACAACTAAGCAGTTTTTTACGGAGTCACCTAGTGCAG | 9600 fluorescence intensity (a.u.) |
| AATTACTACAGGCATATGCACCATCAATTTTCATTTACATCGGAGTCACCTAGTGCAG | 8180 fluorescence intensity (a.u.) |
| TTATTTTGTTATGAGTTGTTTTATCACTCATAGTACTTTACGGAGTCACCTAGTGCAG | 8380 fluorescence intensity (a.u.) |
| CAGTTTGATTCGTTCTTTACTTCGATTCAGTTTGTTTTCGCGGAGTCACCTAGTGCAG | 8550 fluorescence intensity (a.u.) |
| TTGGTTTTTTGTGTTATCCTTCTGACAGAATATTTTGGAACGGAGTCACCTAGTGCAG | 9360 fluorescence intensity (a.u.) |
| AAAAAACACCCGCTAAATTCCCGCGAAGATTCTTTCCCGGCGGAGTCACCTAGTGCAG | 8030 fluorescence intensity (a.u.) |
| AGAATCTGACGTTTTATTTCTGAAACTTTCTTTGCATGCACGGAGTCACCTAGTGCAG | 8030 fluorescence intensity (a.u.) |
| GCTATTTATCCATTTCCTTTTCCCAATCCCACCTTTCATACGGAGTCACCTAGTGCAG | 12000 fluorescence intensity (a.u.) |
| GAGTTAGCCATGGCCTGTCAATTACTGGAACTCTGTTGTACGGAGTCACCTAGTGCAG | 8220 fluorescence intensity (a.u.) |
| CCTAAAATAAATTTATTTTTCACCCATCTCACACATACCACGGAGTCACCTAGTGCAG | 8080 fluorescence intensity (a.u.) |
| TGAATGAGTACTTCCAGCAAGTGTGTTTCTCGTGTCTGTCCGGAGTCACCTAGTGCAG | 9020 fluorescence intensity (a.u.) |
| CTGTGTATCTCCAGCTCTTCCTTTTACATGTTAGTATGTTCGGAGTCACCTAGTGCAG | 11600 fluorescence intensity (a.u.) |
| CGCCCATTCTACACCGTCTCCATCCATCTCATCTCGTCGTCGGAGTCACCTAGTGCAG | 12100 fluorescence intensity (a.u.) |

| Sequence | binding signal |
| --- | --- |
| GTGCCTGACGTGGATCCTTGCTGTTCCCGTGTCCCAACCACGGAGTCACCTAGTGCAG | 9670 fluorescence intensity (a.u.) |
| TTTTATGTATCTGGGCTGCCTATCTGCAGGAGGGAGGGGACGGAGTCACCTAGTGCAG | 12600 fluorescence intensity (a.u.) |
| CTCGCCGTTTTGGTTTTCGTTCGCTGATTCGCTCTCGTCCCGGAGTCACCTAGTGCAG | 15500 fluorescence intensity (a.u.) |
| CTACCAGCCGCCGCCGCCGCCGCCGCCGTACGGCGTGAACCGGAGTCACCTAGTGCAG | 9100 fluorescence intensity (a.u.) |
| CCTAACCCATCGCCGCGCCGCGCCATCCCCACGCTGCGCCCGGAGTCACCTAGTGCAG | 9890 fluorescence intensity (a.u.) |
| GTCACCTTGATTATTTTTTTCAGTTTCAATTTGCTACTTTCGGAGTCACCTAGTGCAG | 14300 fluorescence intensity (a.u.) |
| ATGTATGTAACCACCGAATACAATGTTTTATCCTCAATCACGGAGTCACCTAGTGCAG | 8510 fluorescence intensity (a.u.) |
| AACTCGCTGCCGTGCCAGACGATTTTTGCCACCTCCATGCCGGAGTCACCTAGTGCAG | 8240 fluorescence intensity (a.u.) |
| ATCGCGTTTGAACTTTGACGTGTTAGTTTTATGTTCCCATCGGAGTCACCTAGTGCAG | 9930 fluorescence intensity (a.u.) |
| CTCCTCTCTCTCTCAGCTCACCACACCTCGAGTCGCCGCCCGGAGTCACCTAGTGCAG | 8180 fluorescence intensity (a.u.) |
| GCAATTGTTCAATATTTTTTTGTGTGTATGTGTTTTTTTTCGGAGTCACCTAGTGCAG | 18200 fluorescence intensity (a.u.) |
| ACGTGGTACTCCCTCCGTCCAAGTTTTCGTGCTTAATTTTCGGAGTCACCTAGTGCAG | 12800 fluorescence intensity (a.u.) |
| TACCAGCATACGGCCACTTAAGACCACCACCAAACACTTCCGGAGTCACCTAGTGCAG | 9190 fluorescence intensity (a.u.) |
| CTCGCAAAGCATCGACGTGCCACCTACCCCATCCGGAACACGGAGTCACCTAGTGCAG | 8040 fluorescence intensity (a.u.) |
| ATCATGTCATTTTTTTTTCAAATCTTTTTATGTTTATTTACGGAGTCACCTAGTGCAG | 10500 fluorescence intensity (a.u.) |
| CACTATCATATTGGGTAATTAACTTGGGTAAACTTCATCGCGGAGTCACCTAGTGCAG | 8190 fluorescence intensity (a.u.) |
| CGTTCGCTTCAGCCTTCACGTACGCATCATCATGCATGACCGGAGTCACCTAGTGCAG | 8420 fluorescence intensity (a.u.) |
| CACTCCTCGCCGTCTTGTTTCTTCTTCGTCTGGGTGGTTGCGGAGTCACCTAGTGCAG | 13000 fluorescence intensity (a.u.) |
| ATATGTTACTCTCGCATCATATCCCCGGTTCTGTATGACACGGAGTCACCTAGTGCAG | 10800 fluorescence intensity (a.u.) |
| TCGTCATTAGGCTTCGCTCAAGAGCTTCGCCCTACGGCTTCGGAGTCACCTAGTGCAG | 8070 fluorescence intensity (a.u.) |
| GGGAGTCACAGGAGGTAGATGGTGGGAGGGATCTAGGAAGCGGAGTCACCTAGTGCAG | 8880 fluorescence intensity (a.u.) |
| AGACGAGACGCCTTCCGCCTTTCTTCTCCCAACGCTTTCCCGGAGTCACCTAGTGCAG | 8130 fluorescence intensity (a.u.) |
| TAGCACCGTGTTGTACTGTTGTTCCACTCACTCGCTCGTGCGGAGTCACCTAGTGCAG | 8030 fluorescence intensity (a.u.) |
| AACCACAATAATCACACACTGATTCCACCGCCGGCTTCTCCGGAGTCACCTAGTGCAG | 9530 fluorescence intensity (a.u.) |
| GGATTCGTGCTCTGCAGCTTAAGTTTAGTGCGGCCTTCTACGGAGTCACCTAGTGCAG | 11200 fluorescence intensity (a.u.) |
| CATCCGATTTGTGTGTGCCCGCCACTGCCCTGCTGCCTCACGGAGTCACCTAGTGCAG | 9450 fluorescence intensity (a.u.) |
| TCGCTTTGTTTACGCGGCGCGCCTCTCTTTTTCCTTAGCCCGGAGTCACCTAGTGCAG | 9770 fluorescence intensity (a.u.) |

Shown as comma-separated lines: part of the list above.
Sequence,binding signal
GTGCCTGACGTGGATCCTTGCTGTTCCCGTGTCCCAACCACGGAGTCACCTAGTGCAG,9670 fluorescence intensity (a.u.)
TTTTATGTATCTGGGCTGCCTATCTGCAGGAGGGAGGGGACGGAGTCACCTAGTGCAG,12600 fluorescence intensity (a.u.)
CTCGCCGTTTTGGTTTTCGTTCGCTGATTCGCTCTCGTCCCGGAGTCACCTAGTGCAG,15500 fluorescence intensity (a.u.)
CTACCAGCCGCCGCCGCCGCCGCCGCCGTACGGCGTGAACCGGAGTCACCTAGTGCAG,9100 fluorescence intensity (a.u.)
CCTAACCCATCGCCGCGCCGCGCCATCCCCACGCTGCGCCCGGAGTCACCTAGTGCAG,9890 fluorescence intensity (a.u.)
GTCACCTTGATTATTTTTTTCAGTTTCAATTTGCTACTTTCGGAGTCACCTAGTGCAG,14300 fluorescence intensity (a.u.)
ATGTATGTAACCACCGAATACAATGTTTTATCCTCAATCACGGAGTCACCTAGTGCAG,8510 fluorescence intensity (a.u.)
AACTCGCTGCCGTGCCAGACGATTTTTGCCACCTCCATGCCGGAGTCACCTAGTGCAG,8240 fluorescence intensity (a.u.)
ATCGCGTTTGAACTTTGACGTGTTAGTTTTATGTTCCCATCGGAGTCACCTAGTGCAG,9930 fluorescence intensity (a.u.)
CTCCTCTCTCTCTCAGCTCACCACACCTCGAGTCGCCGCCCGGAGTCACCTAGTGCAG,8180 fluorescence intensity (a.u.)
